# Assay results: the supplement of paper PMC8728848
# This is one part of the list.
# B1: PX14375A-pdi-503-28-503 (Parabacteroides distasonis) (protein)
# chain: PLGSPEAGDISEERQAFLRLTAVYSVMKDFRYTWSMQCFGDVLSNDATYSGSSNDAQTFTLLENYQYQADHTEILNKYRYSYQCINKANLFIRDMEMADDALFSKYDKEQMIGEAKFIRAYTYFELVKTFGGVPCYTGVLDLDHERLGRASVEEIYSVIEQDLNDAVSVLPKKSEVANYESSYAGRITKGAAIAMQTRIYLYEKKYDEVKKAFEKFQNECGGEYSLVAPEDYTWQFSLDGEHCSSSILEVNMYNSSTQSSYNVNNGNRHVLMSMPRNMTIGFGCAQPTQALADAYDAEGDVIRKKTTLLSTEEAIEIETAAKGDVAPVTDDRTGWYNRKLYLAPGQREENRGNNQPTNLRLIRLAEVYLNYAEACYFSGDIANAQKYLNEVRSHVNLAPKNHTGSQLFEDIMNERHLEFGMEGFRFFDVVRVGWGEKVFNGTKKAEFGAKTPFSAGAEVLPIPQTEIDISDGLITN
# How the values were obtained:
# Test in all cases: glycan array binding signal (z-score within array); higher = stronger binding
# Conditions in all cases: glycan notation: IUPAC condensed, linker removed
# [1] = biological target: Neu5Ac(a2-6)Gal(b1-4)GlcNAc(b1-3)Gal(b1-4)GlcNAc(b1-3)GalNAc
# How it was run: (§1)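 The Consortium for Functional Glycomics database supplied 3228 glycan arrays, of which those lacking an available protein sequence were dropped. The binding signal, a within-array Z-score, was averaged across arrays of the same protein sequence and across linkers. Negative scores can be read as non-binding.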
# [2] = biological target: Neu5Ac(a2-6)Gal(b1-4)GlcNAc(b1-3)Gal(b1-4)GlcNAc(b1-3)[Neu5Ac(a2-6)Gal(b1-4)GlcNAc(b1-3)Gal(b1-4)GlcNAc(b1-6)]GalNAc
# How it was run: as §1
# [3] = biological target: Neu5Ac(a2-6)Gal(b1-4)GlcNAc(b1-3)Gal(b1-4)GlcNAc(b1-6)[Gal(b1-3)]GalNAc
# How it was run: as §1
# [4] = biological target: Neu5Ac(a2-6)Gal(b1-4)GlcNAc(b1-3)Gal(b1-4)[Fuc(a1-3)]GlcNAc(b1-3)Gal(b1-4)[Fuc(a1-3)]GlcNAc
# How it was run: as §1
# [5] = biological target: Neu5Ac(a2-6)Gal(b1-4)GlcNAc(b1-3)GalNAc
# How it was run: as §1
# [6] = biological target: Neu5Ac(a2-6)Gal(b1-4)GlcNAc(b1-3)[Neu5Ac(a2-6)Gal(b1-4)GlcNAc(b1-6)]GalNAc
# How it was run: as §1
# [7] = biological target: Neu5Ac(a2-6)Gal(b1-4)GlcNAc(b1-6)GalNAc
# How it was run: as §1
# [8] = biological target: Neu5Ac(a2-6)Gal(b1-4)GlcNAc(b1-6)[Gal(b1-3)GlcNAc(b1-3)]Gal(b1-4)Glc
# How it was run: as §1
# [9] = biological target: Neu5Ac(a2-6)Gal(b1-4)GlcNAc(b1-6)[Gal(b1-3)]GalNAc
# How it was run: as §1
# [10] = biological target: Neu5Ac(a2-6)Gal(b1-4)GlcNAc6S
# How it was run: as §1
# Neu5Ac(a2-6)GalNAc = biological target: Neu5Ac(a2-6)GalNAc
# How it was run: as §1
# [11] = biological target: Neu5Ac(a2-6)GalNAc(b1-4)GlcNAc
# How it was run: as §1
# [12] = biological target: Neu5Ac(a2-6)GalNAc(b1-4)GlcNAc6S
# How it was run: as §1
# [13] = biological target: Neu5Ac(a2-6)GlcNAc(b1-4)GlcNAc
# How it was run: as §1
# [14] = biological target: Neu5Ac(a2-6)GlcNAc(b1-4)GlcNAc(b1-4)GlcNAc
# How it was run: as §1
# Neu5Ac(a2-8)Neu5Ac = biological target: Neu5Ac(a2-8)Neu5Ac
# How it was run: as §1
# [15] = biological target: Neu5Ac(a2-8)Neu5Ac(a2-3)Gal(b1-3)GalNAc(b1-4)[Neu5Ac(a2-3)]Gal(b1-4)Glc
# How it was run: as §1
# [16] = biological target: Neu5Ac(a2-8)Neu5Ac(a2-3)Gal(b1-3)GalNAc(b1-4)[Neu5Ac(a2-8)Neu5Ac(a2-3)]Gal(b1-4)Glc
# How it was run: as §1
# [17] = biological target: Neu5Ac(a2-8)Neu5Ac(a2-3)Gal(b1-4)Glc
# How it was run: as §1
# [18] = biological target: Neu5Ac(a2-8)Neu5Ac(a2-3)Gal(b1-4)GlcNAc
# How it was run: as §1
# [19] = biological target: Neu5Ac(a2-8)Neu5Ac(a2-3)[Gal(b1-3)GalNAc(b1-4)]Gal(b1-4)Glc
# How it was run: as §1
# [20] = biological target: Neu5Ac(a2-8)Neu5Ac(a2-3)[GalNAc(b1-4)]Gal(b1-4)Glc
# How it was run: as §1
# [21] = biological target: Neu5Ac(a2-8)Neu5Ac(a2-8)Neu5Ac
# How it was run: as §1
# [22] = biological target: Neu5Ac(a2-8)Neu5Ac(a2-8)Neu5Ac(a2-3)Gal(b1-4)Glc
# How it was run: as §1
# [23] = biological target: Neu5Ac(a2-8)Neu5Ac(a2-8)Neu5Ac(a2-3)[Gal(b1-3)GalNAc(b1-4)]Gal(b1-4)Glc
# How it was run: as §1
# [24] = biological target: Neu5Ac(a2-8)Neu5Ac(a2-8)Neu5Ac(a2-3)[GalNAc(b1-4)]Gal(b1-4)Glc
# How it was run: as §1
# [25] = biological target: Neu5Ac(a2-8)Neu5Ac(a2-8)Neu5Ac(a2-8)Neu5Ac(a2-3)[GalNAc(b1-4)]Gal(b1-4)Glc
# How it was run: as §1
# [26] = biological target: Neu5Ac(a2-8)Neu5Gc(a2-3)Gal(b1-4)GlcNAc
# How it was run: as §1
# [27] = biological target: Neu5Ac(b2-6)Gal(b1-4)GlcNAc
# How it was run: as §1
# Neu5Ac(b2-6)GalNAc = biological target: Neu5Ac(b2-6)GalNAc
# How it was run: as §1
# [28] = biological target: Neu5Ac9Ac(a2-3)Gal(b1-3)GlcNAc
# How it was run: as §1
# [29] = biological target: Neu5Ac9Ac(a2-3)Gal(b1-4)GlcNAc
# How it was run: as §1
# [30] = biological target: Neu5Ac9Ac(a2-6)Gal(b1-4)GlcNAc
# How it was run: as §1
# [31] = biological target: Neu5Gc(a2-3)Gal(b1-3)GlcNAc
# How it was run: as §1
# [32] = biological target: Neu5Gc(a2-3)Gal(b1-3)[Fuc(a1-4)]GlcNAc
# How it was run: as §1
# Neu5Gc(a2-3)Gal(b1-4)Glc = biological target: Neu5Gc(a2-3)Gal(b1-4)Glc
# How it was run: as §1
# [33] = biological target: Neu5Gc(a2-3)Gal(b1-4)GlcNAc
# How it was run: as §1
# [34] = biological target: Neu5Gc(a2-3)Gal(b1-4)GlcNAc(b1-3)Gal(b1-4)GlcNAc(b1-2)Man(a1-3)[Neu5Gc(a2-3)Gal(b1-4)GlcNAc(b1-3)Gal(b1-4)GlcNAc(b1-2)Man(a1-6)]Man(b1-4)GlcNAc(b1-4)GlcNAc
# How it was run: as §1
# [35] = biological target: Neu5Gc(a2-3)Gal(b1-4)[Fuc(a1-3)]GlcNAc
# How it was run: as §1
# [36] = biological target: Neu5Gc(a2-6)Gal(b1-4)GlcNAc
# How it was run: as §1
# Neu5Gc(a2-6)GalNAc = biological target: Neu5Gc(a2-6)GalNAc
# How it was run: as §1
# [37] = biological target: Neu5Gc(a2-8)Neu5Ac(a2-3)Gal(b1-4)GlcNAc
# How it was run: as §1
# [38] = biological target: Neu5Gc(a2-8)Neu5Gc(a2-3)Gal(b1-4)GlcNAc
# How it was run: as §1
# [39] = biological target: Neu5Gc(a2-8)Neu5Gc(a2-3)Gal(b1-4)GlcNAc(b1-3)Gal(b1-4)GlcNAc
# How it was run: as §1
# [40] = biological target: Neu5Gc(a2-8)Neu5Gc(a2-6)Gal(b1-4)GlcNAc
# How it was run: as §1
# [41] = biological target: Neu5Gc(b2-6)Gal(b1-4)GlcNAc
# How it was run: as §1
binder,measurement,setting,value
B1,glycan array binding signal (z-score),[1],0.439
same,glycan array binding signal (z-score),[2],1.16
same,glycan array binding signal (z-score),[3],-0.493
same,glycan array binding signal (z-score),[4],-0.365
same,glycan array binding signal (z-score),[5],-0.633
same,glycan array binding signal (z-score),[6],0.786
same,glycan array binding signal (z-score),[7],-1.3
same,glycan array binding signal (z-score),[8],-0.029
same,glycan array binding signal (z-score),[9],-0.287
same,glycan array binding signal (z-score),[10],-0.043
same,glycan array binding signal (z-score),Neu5Ac(a2-6)GalNAc,-0.976
same,glycan array binding signal (z-score),[11],0.545
same,glycan array binding signal (z-score),[12],0.576
same,glycan array binding signal (z-score),[13],-0.047
same,glycan array binding signal (z-score),[14],-0.752
same,glycan array binding signal (z-score),Neu5Ac(a2-8)Neu5Ac,-0.35
same,glycan array binding signal (z-score),[15],-0.127
same,glycan array binding signal (z-score),[16],0.275
same,glycan array binding signal (z-score),[17],0.052
same,glycan array binding signal (z-score),[18],-0.905
same,glycan array binding signal (z-score),[19],0.562
same,glycan array binding signal (z-score),[20],0.124
same,glycan array binding signal (z-score),[21],-0.278
same,glycan array binding signal (z-score),[22],0.007
same,glycan array binding signal (z-score),[23],0.064
same,glycan array binding signal (z-score),[24],-0.885
same,glycan array binding signal (z-score),[25],-0.13
same,glycan array binding signal (z-score),[26],13.2
same,glycan array binding signal (z-score),[27],0.328
same,glycan array binding signal (z-score),Neu5Ac(b2-6)GalNAc,-0.895
same,glycan array binding signal (z-score),[28],0.199
same,glycan array binding signal (z-score),[29],-0.837
same,glycan array binding signal (z-score),[30],-0.778
same,glycan array binding signal (z-score),[31],-0.688
same,glycan array binding signal (z-score),[32],-0.334
same,glycan array binding signal (z-score),Neu5Gc(a2-3)Gal(b1-4)Glc,-0.317
same,glycan array binding signal (z-score),[33],-0.718
same,glycan array binding signal (z-score),[34],0.828
same,glycan array binding signal (z-score),[35],0.175
same,glycan array binding signal (z-score),[36],-0.592
same,glycan array binding signal (z-score),Neu5Gc(a2-6)GalNAc,-0.468
same,glycan array binding signal (z-score),[37],-0.177
same,glycan array binding signal (z-score),[38],-0.736
same,glycan array binding signal (z-score),[39],-0.755
same,glycan array binding signal (z-score),[40],-0.051
same,glycan array binding signal (z-score),[41],-0.19

# As a short view, some entries already given:
binder,measurement,setting,value
B1,glycan array binding signal (z-score),[8],-0.029
same,glycan array binding signal (z-score),[9],-0.287
same,glycan array binding signal (z-score),[10],-0.043
same,glycan array binding signal (z-score),Neu5Ac(a2-6)GalNAc,-0.976
same,glycan array binding signal (z-score),[11],0.545
same,glycan array binding signal (z-score),[12],0.576
same,glycan array binding signal (z-score),[13],-0.047
same,glycan array binding signal (z-score),[14],-0.752
same,glycan array binding signal (z-score),Neu5Ac(a2-8)Neu5Ac,-0.35
same,glycan array binding signal (z-score),[15],-0.127
same,glycan array binding signal (z-score),[16],0.275
same,glycan array binding signal (z-score),[17],0.052
same,glycan array binding signal (z-score),[18],-0.905
same,glycan array binding signal (z-score),[19],0.562
